Experimental data reported in PMC4202153.

Protein sequences, listed by entry. Tags and fused reporters are not part of them.
UniProt Q92769: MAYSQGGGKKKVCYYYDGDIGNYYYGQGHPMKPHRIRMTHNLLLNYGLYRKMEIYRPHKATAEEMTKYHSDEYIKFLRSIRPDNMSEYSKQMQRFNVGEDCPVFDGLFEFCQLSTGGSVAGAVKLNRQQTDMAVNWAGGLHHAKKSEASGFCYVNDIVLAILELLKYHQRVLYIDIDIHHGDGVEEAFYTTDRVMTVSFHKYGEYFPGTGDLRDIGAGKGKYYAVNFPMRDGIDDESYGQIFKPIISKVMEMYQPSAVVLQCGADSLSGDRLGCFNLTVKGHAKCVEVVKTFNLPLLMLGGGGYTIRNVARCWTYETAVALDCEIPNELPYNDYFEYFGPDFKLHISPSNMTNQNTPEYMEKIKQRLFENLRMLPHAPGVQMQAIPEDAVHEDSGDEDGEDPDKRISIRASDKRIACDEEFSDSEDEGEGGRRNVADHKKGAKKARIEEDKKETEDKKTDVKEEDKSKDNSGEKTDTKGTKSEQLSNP
UniProt Q13547: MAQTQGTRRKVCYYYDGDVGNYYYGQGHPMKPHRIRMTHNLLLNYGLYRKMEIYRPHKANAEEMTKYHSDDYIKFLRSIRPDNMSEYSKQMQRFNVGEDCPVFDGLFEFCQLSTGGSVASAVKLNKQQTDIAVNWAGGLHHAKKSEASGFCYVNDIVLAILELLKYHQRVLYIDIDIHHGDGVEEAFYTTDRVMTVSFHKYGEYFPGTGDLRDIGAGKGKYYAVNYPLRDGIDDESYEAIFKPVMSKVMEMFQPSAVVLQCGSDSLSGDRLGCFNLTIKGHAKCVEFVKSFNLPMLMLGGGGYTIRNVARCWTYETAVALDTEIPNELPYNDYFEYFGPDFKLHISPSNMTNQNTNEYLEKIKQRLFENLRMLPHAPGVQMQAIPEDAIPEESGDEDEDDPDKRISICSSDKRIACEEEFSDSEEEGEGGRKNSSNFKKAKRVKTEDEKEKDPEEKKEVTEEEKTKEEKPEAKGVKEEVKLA

Target: T1, TRPS1 (human (endogenous in the paper's human breast cell lines; line not named for this experiment)) (UniProt Q9UHF7)
T1 sequence: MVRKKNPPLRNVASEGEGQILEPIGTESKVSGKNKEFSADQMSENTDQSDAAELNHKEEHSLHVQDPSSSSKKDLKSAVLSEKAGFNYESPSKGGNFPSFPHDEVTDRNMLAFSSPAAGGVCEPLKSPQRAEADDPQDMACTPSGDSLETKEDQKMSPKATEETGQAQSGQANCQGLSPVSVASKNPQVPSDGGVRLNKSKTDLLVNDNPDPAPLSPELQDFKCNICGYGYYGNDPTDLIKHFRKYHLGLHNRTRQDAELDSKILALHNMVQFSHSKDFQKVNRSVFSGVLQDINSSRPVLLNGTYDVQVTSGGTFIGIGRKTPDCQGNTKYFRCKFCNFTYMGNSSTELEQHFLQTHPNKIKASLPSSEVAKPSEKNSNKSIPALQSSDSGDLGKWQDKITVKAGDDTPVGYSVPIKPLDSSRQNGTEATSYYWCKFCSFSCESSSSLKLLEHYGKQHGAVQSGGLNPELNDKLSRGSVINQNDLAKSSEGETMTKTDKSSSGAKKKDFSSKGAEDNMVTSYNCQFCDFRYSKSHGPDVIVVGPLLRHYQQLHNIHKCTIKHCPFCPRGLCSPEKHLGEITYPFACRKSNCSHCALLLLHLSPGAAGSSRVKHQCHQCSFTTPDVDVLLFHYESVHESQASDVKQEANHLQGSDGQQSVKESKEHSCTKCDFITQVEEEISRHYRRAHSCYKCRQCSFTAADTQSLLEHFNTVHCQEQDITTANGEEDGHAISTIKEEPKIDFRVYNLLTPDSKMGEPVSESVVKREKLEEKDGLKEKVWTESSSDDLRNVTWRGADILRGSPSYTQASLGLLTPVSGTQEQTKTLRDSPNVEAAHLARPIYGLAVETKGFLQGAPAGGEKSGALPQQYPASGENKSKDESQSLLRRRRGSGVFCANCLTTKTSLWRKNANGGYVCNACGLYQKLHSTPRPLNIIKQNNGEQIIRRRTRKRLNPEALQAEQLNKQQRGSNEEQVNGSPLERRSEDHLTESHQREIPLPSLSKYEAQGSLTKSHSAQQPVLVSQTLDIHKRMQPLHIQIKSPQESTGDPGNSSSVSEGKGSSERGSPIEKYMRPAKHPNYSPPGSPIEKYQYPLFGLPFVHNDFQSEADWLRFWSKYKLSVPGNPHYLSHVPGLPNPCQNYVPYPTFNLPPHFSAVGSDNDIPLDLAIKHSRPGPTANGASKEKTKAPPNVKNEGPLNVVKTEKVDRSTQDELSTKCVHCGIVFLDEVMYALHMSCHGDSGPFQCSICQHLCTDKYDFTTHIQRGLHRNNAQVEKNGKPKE
Assay: affinity purification with mass spectrometry; immunoprecipitation with anti-TRPS1 antibody (R&D Systems) against control polyclonal IgG on Dynabeads Protein G; precipitated proteins analysed by MS

Substance | binding
HDAC2 (from UniProt Q92769 1-488) (enzyme) | binds
HDAC1 (from UniProt Q13547 1-482) (enzyme) | binds

These are yes or no findings as the source states them, for the method shown. Binding seen in cells or lysates may run through a third protein. Here binding means that the protein was enriched with, or labelled near, the bait; the list need not be complete. Sequences can lack the tags named with a protein.
